Data taken from PubChem BioAssay AID330 (DTP/NCI, 2004).
The list is a part of this screen's results and no random one: it gathers tests that were run many times, whatever their T/C, doses with no T/C, and many T/C values between a quarter and a half above the control. Further doses and runs are listed elsewhere. T/C gives the treated animals as a percentage of the vehicle group. Some doses have a count of surviving animals in place of a T/C: the source holds a T/C of zero for them, seemingly a mark for toxic or unscored doses. Some doses without a T/C left all or most animals alive at the check, yet need not have been tolerated: survival well below the control is almost never listed, so the zero probably covers shortened survival too. Counts of survivors are from the toxicity check (mostly the fifth day) where no day follows; animals may have died later. Schedules are NCI's codes, taken here to give the interval after Q, in days (D) or hours (H), and the number of doses after X. Some entries were tested several times; the values are given in rising order. Where survival is the endpoint, the PubChem record calls one and a half times the control and up active, and a quarter to a half above the control has no call in these data; cut-offs in other NCI protocols can differ.

Tested on: P388 leukemia ip, CD2F1 mice, survival T/C
Assay: NCI In Vivo Anticancer Drug Screen. Data for tumor model P388 Leukemia (intraperitoneal) in CD2F1 (CDF1) mice
Settings: T/C endpoint: median survival time, higher T/C = longer survival
[1] = dose: 120.0 mg/kg/injection, schedule: Q01DX005 (ip), vehicle: saline with Tween-80
[2] = dose: 200.0 mg/kg/injection, schedule: Q04DX003 (ip), vehicle: saline
[3] = dose: 400.0 mg/kg/injection, schedule: Q04DX003 (ip), vehicle: saline

## NC(=O)C1C2C=CC(O2)C1C(=O)O (stereo not given)
dose: 60.0 mg/kg/injection, schedule: Q01DX005 (ip), vehicle: saline
  survivor count: 0 of 6
dose: 120.0 mg/kg/injection, schedule: Q01DX005 (ip), vehicle: saline
  survivor count: 0 of 6
dose: 240.0 mg/kg/injection, schedule: Q01DX005 (ip), vehicle: saline
  survivor count: 0 of 6

## CCCCCCCC(=O)Nc1cccc(C)c1C
dose: 400.0 mg/kg/injection, schedule: Q04DX003 (ip), vehicle: saline with Tween-80
  survivor count: 5 of 6

## CC(C)N1CCOCC1
dose: 200.0 mg/kg/injection, schedule: Q01DX009 (ip), vehicle: saline
  survivor count: 0 of 6

## CN(C)c1ccc(/C=N/O)cc1
dose: 50.0 mg/kg/injection, schedule: Q01DX009 (ip), vehicle: Klucel (hydroxypropylcellulose) (HPC)
  survivor count: 6 of 6

## COc1cc2cc(c1Cl)N1CCC(C)(O)C(=O)NC(C)C(=O)OC(CC1=O)C1(C)OC1C(C)C1CC(O)(NC(=O)O1)C(OC)/C=C\C=C(\C)C2OC (stereo not given)
dose: 0.12 mg/kg/injection, schedule: Q01DX009 (ip), vehicle: distilled water + alcohol
  T/C: 142 % of control
dose: 0.25 mg/kg/injection, schedule: Q01DX009 (ip), vehicle: distilled water + alcohol
  survivor count: 4 of 4
dose: 0.5 mg/kg/injection, schedule: Q01DX009 (ip), vehicle: distilled water + alcohol
  survivor count: 0 of 4
dose: 1.0 mg/kg/injection, schedule: Q01DX009 (ip), vehicle: distilled water + alcohol
  survivor count: 0 of 4
dose: 8.0 micrograms/kg/injection, schedule: Q01DX009 (ip), vehicle: distilled water + alcohol
  T/C: 144 % of control

## CCOC(=O)NC(C)(C)CN(C(=O)OCC)c1ccccc1
dose: 100.0 mg/kg/injection, schedule: Q04DX003 (ip), vehicle: saline with Tween-80
  T/C: 127 % of control

## CCCCC(=O)N/N=C(\C)[C@]1(O)Cc2c(O)c3c(c(O)c2[C@@H](OC2CC(N)C(O)C(C)O2)C1)C(=O)c1c(OC)cccc1C3=O (stereo not given in full)
dose: 0.5 mg/kg/injection, schedule: Q01DX009 (ip), vehicle: water
  T/C: 144 % of control
dose: 1.0 mg/kg/injection, schedule: Q01DX009 (ip), vehicle: water
  T/C: 141 % of control
dose: 16.0 mg/kg/injection, schedule: Q01DX009 (ip), vehicle: water
  survivor count: 4 of 4 and 6 of 6

## [O-]/[N+](C1C(Cl)C2CC1C1C=CCC12)=[N+](\[O-])C1C(Cl)C2CC1C1C=CCC12 (stereo not given)
[1]
  survivor count: 6 of 6
dose: 240.0 mg/kg/injection, schedule: Q01DX005 (ip), vehicle: saline with Tween-80
  survivor count: 6 of 6

## c1ccc(C2=NC3CCCC[C@H]3O2)cc1 (stereo not given in full)
[1]
  survivor count: 2 of 6

## c1cc2c3c(ccc2c2c1OCN(C1CCCCC1)C2)OCN(C1CCCCC1)C3
dose: 25.0 mg/kg/injection, schedule: Q01DX005 (ip), vehicle: Klucel (hydroxypropylcellulose) (HPC)
  survivor count: 6 of 6
dose: 50.0 mg/kg/injection, schedule: Q01DX005 (ip), vehicle: Klucel (hydroxypropylcellulose) (HPC)
  survivor count: 6 of 6
dose: 100.0 mg/kg/injection, schedule: Q01DX005 (ip), vehicle: Klucel (hydroxypropylcellulose) (HPC)
  survivor count: 6 of 6

## COc1cc2c(cc1OC)C1=C(CC2)C2CCCN2CC1 (stereo not given)
dose: 50.0 mg/kg/injection, schedule: Q04DX003 (ip), vehicle: saline
  survivor count: 6 of 6

## CCCC(=O)N1CCCCC1CC (stereo not given)
dose: 400.0 mg/kg/injection, schedule: Q01DX001 (ip), vehicle: saline
  survivor count: 3 of 6

## CC(=O)N1CCCC2=C1CCC2
[2]
  survivor count: 2 of 6
[3]
  survivor count: 0 of 6

## CC1(C)C(=O)CCC2(C)C1CC(=O)C1(C)C2CCC2(C)C(c3ccoc3)OC(=O)C3OC321 (stereo not given)
dose: 1.0 mg/kg/injection, schedule: Q01DX009 (ip), vehicle: Klucel (hydroxypropylcellulose) (HPC)
  survivor count: 6 of 6

## CC(=O)OC1OC(/C=N\N(C)C)C(OCc2ccccc2)C(OCc2ccccc2)C1OC(C)=O (stereo not given)
dose: 3.12 mg/kg/injection, schedule: Q01DX009 (ip), vehicle: Klucel (hydroxypropylcellulose) (HPC)
  survivor count: 5 of 5
dose: 12.5 mg/kg/injection, schedule: Q01DX009 (ip), vehicle: other
  survivor count: 6 of 6

## CCN(CC)CCNc1cc(OC)c(C)c2cccnc12
dose: 200.0 mg/kg/injection, schedule: Q01DX005 (ip), vehicle: saline
  survivor count: 0 of 5

## C(=C\c1cc2ccc(C3=NCCN3)cc2[nH]1)/c1ccc(Oc2ccc(C3=NCCN3)cc2)cc1
dose: 6.25 mg/kg/injection, schedule: Q04DX003 (ip), vehicle: saline
  T/C: 128 % of control
dose: 12.5 mg/kg/injection, schedule: Q04DX003 (ip), vehicle: saline
  T/C: 135 % of control
dose: 25.0 mg/kg/injection, schedule: Q04DX003 (ip), vehicle: saline
  T/C: 147 % of control
dose: 100.0 mg/kg/injection, schedule: Q04DX003 (ip), vehicle: saline
  survivor count: 0 of 6
[2]
  survivor count: 0 of 6
[3]
  survivor count: 0 of 6
